These are yes or no findings as the source states them, for the method shown. In cells and extracts the contact can be indirect. These calls come from enrichment with a bait or labelling near it, and not all partners need be listed.

The chains behind the UniProt entries cited, without tags or fusion partners.
UniProt P27816: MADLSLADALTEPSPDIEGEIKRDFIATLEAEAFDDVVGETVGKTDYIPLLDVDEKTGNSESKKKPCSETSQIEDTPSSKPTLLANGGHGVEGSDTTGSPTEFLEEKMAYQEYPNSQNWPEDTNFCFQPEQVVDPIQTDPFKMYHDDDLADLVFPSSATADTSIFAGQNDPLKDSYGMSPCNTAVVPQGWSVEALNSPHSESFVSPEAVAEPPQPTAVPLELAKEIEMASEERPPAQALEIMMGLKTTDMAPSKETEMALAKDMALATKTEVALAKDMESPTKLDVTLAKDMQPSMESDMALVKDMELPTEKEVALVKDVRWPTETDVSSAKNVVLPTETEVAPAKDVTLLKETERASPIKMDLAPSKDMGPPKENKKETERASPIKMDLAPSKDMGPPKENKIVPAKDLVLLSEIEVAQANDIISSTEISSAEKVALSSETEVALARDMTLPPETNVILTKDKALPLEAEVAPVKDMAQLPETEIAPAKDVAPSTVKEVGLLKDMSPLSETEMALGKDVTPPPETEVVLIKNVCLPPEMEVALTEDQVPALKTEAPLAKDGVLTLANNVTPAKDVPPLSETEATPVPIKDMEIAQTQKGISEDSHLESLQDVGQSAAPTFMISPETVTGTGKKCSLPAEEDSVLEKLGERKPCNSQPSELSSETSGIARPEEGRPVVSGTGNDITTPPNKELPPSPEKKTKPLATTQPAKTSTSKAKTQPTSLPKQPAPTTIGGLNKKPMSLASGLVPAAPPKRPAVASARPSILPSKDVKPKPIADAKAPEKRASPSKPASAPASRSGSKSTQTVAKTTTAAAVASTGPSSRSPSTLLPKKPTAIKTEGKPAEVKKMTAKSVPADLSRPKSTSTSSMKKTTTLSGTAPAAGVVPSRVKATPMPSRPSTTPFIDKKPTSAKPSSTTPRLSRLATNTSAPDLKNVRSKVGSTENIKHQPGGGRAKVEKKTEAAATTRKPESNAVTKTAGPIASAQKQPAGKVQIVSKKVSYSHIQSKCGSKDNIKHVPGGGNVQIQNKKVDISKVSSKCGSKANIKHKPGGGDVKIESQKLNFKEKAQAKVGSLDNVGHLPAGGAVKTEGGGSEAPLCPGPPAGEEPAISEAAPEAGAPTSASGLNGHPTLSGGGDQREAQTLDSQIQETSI
UniProt Q96JE9: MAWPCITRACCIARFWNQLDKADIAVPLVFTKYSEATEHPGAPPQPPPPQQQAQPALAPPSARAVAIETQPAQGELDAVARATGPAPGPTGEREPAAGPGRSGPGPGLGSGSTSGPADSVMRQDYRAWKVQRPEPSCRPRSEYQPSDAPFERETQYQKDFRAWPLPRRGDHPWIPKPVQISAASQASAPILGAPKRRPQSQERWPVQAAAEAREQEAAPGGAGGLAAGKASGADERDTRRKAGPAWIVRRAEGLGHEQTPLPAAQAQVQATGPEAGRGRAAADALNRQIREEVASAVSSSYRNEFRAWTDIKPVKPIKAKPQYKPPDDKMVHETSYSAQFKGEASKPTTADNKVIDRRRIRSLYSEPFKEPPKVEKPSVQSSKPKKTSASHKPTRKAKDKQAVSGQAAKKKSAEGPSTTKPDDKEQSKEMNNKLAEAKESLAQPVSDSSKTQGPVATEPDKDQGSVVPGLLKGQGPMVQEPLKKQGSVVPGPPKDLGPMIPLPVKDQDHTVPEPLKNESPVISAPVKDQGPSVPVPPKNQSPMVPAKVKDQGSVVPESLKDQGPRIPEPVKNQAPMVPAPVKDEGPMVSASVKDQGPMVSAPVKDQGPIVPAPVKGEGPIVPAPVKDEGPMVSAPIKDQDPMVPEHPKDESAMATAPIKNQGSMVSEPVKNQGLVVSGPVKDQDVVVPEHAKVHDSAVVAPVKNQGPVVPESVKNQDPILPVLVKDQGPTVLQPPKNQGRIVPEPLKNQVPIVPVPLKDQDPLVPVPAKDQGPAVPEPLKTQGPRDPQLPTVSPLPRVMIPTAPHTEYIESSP
UniProt P53350: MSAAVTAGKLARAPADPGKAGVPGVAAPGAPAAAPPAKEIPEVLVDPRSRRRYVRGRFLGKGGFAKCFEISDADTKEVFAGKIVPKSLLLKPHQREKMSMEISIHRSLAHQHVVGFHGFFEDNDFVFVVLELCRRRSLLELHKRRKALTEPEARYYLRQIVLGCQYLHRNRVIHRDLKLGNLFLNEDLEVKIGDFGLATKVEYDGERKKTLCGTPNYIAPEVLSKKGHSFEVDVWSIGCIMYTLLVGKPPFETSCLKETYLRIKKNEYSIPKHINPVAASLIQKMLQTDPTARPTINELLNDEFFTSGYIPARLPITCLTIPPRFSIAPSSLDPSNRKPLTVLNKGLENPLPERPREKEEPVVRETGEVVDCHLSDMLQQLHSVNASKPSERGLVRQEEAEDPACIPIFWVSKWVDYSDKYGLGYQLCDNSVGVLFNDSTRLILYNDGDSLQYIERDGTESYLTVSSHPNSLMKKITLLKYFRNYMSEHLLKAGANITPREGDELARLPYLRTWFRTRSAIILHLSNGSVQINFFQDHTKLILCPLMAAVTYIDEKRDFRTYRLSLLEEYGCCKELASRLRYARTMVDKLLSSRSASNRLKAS

For this assay, the target named is T1, CYR61, bait of the tandem affinity purification for mass spectrometry (human) (UniProt O00622).
T1 sequence: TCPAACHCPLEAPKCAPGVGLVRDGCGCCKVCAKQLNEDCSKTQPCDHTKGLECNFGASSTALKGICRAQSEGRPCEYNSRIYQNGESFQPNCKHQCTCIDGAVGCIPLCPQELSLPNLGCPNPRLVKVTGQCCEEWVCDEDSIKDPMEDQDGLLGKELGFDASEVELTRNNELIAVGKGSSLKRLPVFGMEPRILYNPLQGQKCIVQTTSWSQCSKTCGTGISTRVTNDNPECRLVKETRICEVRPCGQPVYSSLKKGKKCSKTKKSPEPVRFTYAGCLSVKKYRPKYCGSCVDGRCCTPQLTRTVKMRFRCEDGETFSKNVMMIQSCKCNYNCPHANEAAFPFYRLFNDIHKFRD
Nature of the assay: affinity purification with mass spectrometry; tandem affinity purification of CYR61; CYR61 Co-IP samples digested with trypsin, Orbitrap Fusion; cells not given.

Turning to MAP4 (from UniProt P27816 1-1152), the binding entry is “binds”. For the substance MAP6 (from UniProt Q96JE9 1-813), the binding result is given as “binds”. On to “PLK1, endogenous (from UniProt P53350 1-603) (enzyme)”, for which the binding result is recorded as “binds”.

The values above are taken from PMC11186368.
